Measurements reported in PubChem BioAssay AID1347423 (Functional Genomics Laboratory (NCATS/FGL), 2020).
In all, about 52,000 sequences went through this assay and about 210 (0.4%) were called active.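 How the source made its calls: active means gene whose silencing raises cell survival under the drug, median off-target-corrected z-score across its silencing RNAs 2 or more; inactive means the rest.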 Some of the results follow.

Assay: Resistance to Poly (ADP-Ribose) Polymerase inhibitor: Gene Identification via Genome-wide siRNA Screen
Details: mouse BRCA2 R2336H ES cells, olaparib, CellTiter-Glo viability; active compounds read high
Procedure, shortened: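 Mouse BRCA2 R2336H ES cells were reverse-transfected with siRNA (20 nM final), treated at 48 h with 500 nM olaparib, and read by CellTiter-Glo after 72 h. Scores: MAD-based z per siRNA, median per gene, seed off-target correction.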

Row | Sequence | z-score
1 | GGCAAAUUUCACCAUCUUATT against Dsc3 | inactive: 0.807
2 | GCAUGACAUUCCGAAAACUTT against 4921517D22Rik | inactive: 1.08
3 | GGAGAAAAUUCAUACCCGATT against 0610009F02Rik | inactive: 0.703
4 | GGAGAUUGAGAACACAAGCTT against Hipk2 | inactive: 1.43
5 | CGACUGGAAAAAGAUUGGGTT against Ttf1 | inactive: -0.495
6 | GGAGCAAUGUCAUCAGCACTT against Gpr124 | inactive: 0.115
7 | GCAUGCAUGAUGGAUCUUCTT against Gabrb1 | inactive: -2
8 | CCAAGUUUUUAUGCAGAUATT against Pip5k1a | inactive: -1.31
9 | GGAGAAGAAACUGGUGAAGTT against Etfb | inactive: -1.69
10 | GGACAGAAUUGAAAUGCCUTT against Ropn1l | inactive: 0.649
11 | CCCUCUAUCACGGCUACUATT against Hspb2 | inactive: -2.53
12 | CGUUGUAUGCUAGUACUGATT against Olfr1501 | inactive: 0.456
13 | GCCGUGAUGCCUAAAAUGCTT against Olfr543 | inactive: 0.192
14 | GGGAAAGAUAGUUAAUGGATT against Icam4 | inactive: -0.514
15 | GGCAUUCAAAAGGUAAAAUTT against Grid2 | active: 2.35
16 | GGAAAAACGGGAUCUGCCATT against A530053G22Rik | inactive: -0.307
17 | CGCAUUCCUACCAAAAACCTT against Defb14 | inactive: -0.0682
18 | GGAAGGUAUCUGAGGUCCGTT against 2810408A11Rik | inactive: -0.347
19 | UCAAUUUGACUGAUCUGCATT against Cyp2j11 | inactive: 0.706
20 | GCUCCGGAAAGUAAGCAGATT against Tnfrsf26 | inactive: -1.34
21 | GCAGCUGAGAGUGACAUCATT against Atp1a2 | inactive: -0.848
22 | CCAGAUAAUGAACACUUUGTT against Wdr1 | inactive: -0.93
23 | GCCAGAGUGUCGAAUAUCATT against Dll4 | inactive: 0.0472
24 | GGGUUCAGGGUGGAAAAUGTT against Dntt | inactive: -1.63
25 | GGAUGAUCUUGGUGUACACTT against A830041P22Rik | inactive: -1.99
26 | GGAUUUAUGGAAAAUUGGUTT against Zik1 | inactive: -0.445
27 | CCUUCAAUCAUGUUCUAACTT against 6332401O19Rik | inactive: 1.04
28 | GCCAAUUGGAAACUGUGAGTT against Scmh1 | inactive: -1.52
29 | GGAGCUUUUAAGAAUGUGGTT against Ireb2 | inactive: -1.34

Looked up one by one from above (2):
Row | Sequence | z-score
20 | GCUCCGGAAAGUAAGCAGATT against Tnfrsf26 | inactive: -1.34
19 | UCAAUUUGACUGAUCUGCATT against Cyp2j11 | inactive: 0.706
